# PubChem BioAssay AID2685 (National Center for Advancing Translational Sciences (NCATS), 2010)
# This is one part of the list. The main result of the screen is listed elsewhere. These columns were measured beside it and carry no call. The list favours compounds with an active or inconclusive main result. Potencies come from curve fits of mixed quality, noted in brackets. Where a SMILES comes first, the peptide text is derived from it. [ ]: non-standard residue; d: D form. The star is where a group is joined. Hyp = O=C(O)[CH]1C[CH](O)CN1; Cbz = O=C(OCc1ccccc1)*; OBn = c1ccc(CO*)cc1
# Test: qHTS Assay for Lipid Storage Modulators in Drosophila S3 Cells;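 as to cell number change: cells counted by Cell Tracker Red CMTPX staining in the red channel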
# Conditions: BODIPY lipid droplet fluorescence, 18-24 h; for cell number change: measured here: cell count max response, cells fed with added oleic acid
# In short: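 Drosophila S3 cells loaded with oleic acid (400 uM, as added) and compounds at several concentrations; lipid droplets imaged by 488-nm laser-scanning cytometry, 500–530 nm intensity and object ratio to cell channel. Percent activity normalized to 20 uM Triacsin C.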
# [1] = measured here: lipid fluorescence (Fed channel) AC50, cells fed with added oleic acid
# [2] = measured here: cell number channel AC50, cells fed with added oleic acid
SMILES,cell number change,AC50 [1],AC50 [2]
CC1CN(C2CCN(S(=O)(=O)c3ccc4ccccc4c3)CC2)CC(C)O1 (stereo not given),-25.8%,"146 nM [falling, full curve, poor fit]",
COc1ccc(NS(=O)(=O)c2ccc(NC(=O)c3ccc(N(C)S(C)(=O)=O)cc3)cc2)cc1,-9.92%,"10300 nM [falling, partial curve]",
CCCCOc1ccc(C(=O)NN2C(=O)NC3(CCCCC3)C2=O)cc1OC,50%,,"7310 nM [rising, partial curve]"
Cc1nc(SC(C)C(=O)NC2CCCC2)c2ccccc2n1 (stereo not given),-2.07%,"6510 nM [rising, single point]",
Cc1ccc(C(C)C)c(Oc2nnnn2-c2ccccc2)c1,-4.37%,"9200 nM [rising, partial curve]",
CN(CC(=O)NC(=O)NC1CCCCC1)Cc1ccccc1,-5.58%,,"65.1 nM [rising, full curve, poor fit]"
CCN(CC)CCCNC(=O)c1[nH]c(C)c(C(=O)NC2CCCCC2)c1C,,"20600 nM [falling, partial curve]",
CCC1(CC)NC(=O)N(CC(=O)OCn2nnc3ccccc3c2=O)C1=O,-30%,,"461 nM [falling, partial curve, poor fit]"
Cc1[nH]c(C)c(S(=O)(=O)Nc2cccc(Cl)c2C)c1C(=O)N1CCCCC1,-2.75%,"8200 nM [falling, partial curve, poor fit]",
CCOc1cc(C(=O)NC(CC(=O)O)c2ccc(OC3CCCC3)cc2)cc(OCC)c1OCC (stereo not given),24.2%,"580 nM [falling, full curve]",
O=C(COc1ccc(-c2ccccc2)cc1)NNC(=O)NC1CCCCC1,21.4%,"29100 nM [rising, single point]",
CCN(C(=O)COC(=O)C1CCN(S(=O)(=O)c2ccc(C)c(C)c2)CC1)C1CCS(=O)(=O)C1 (stereo not given),-11.1%,"5800 nM [falling, full curve, poor fit]",
COc1ccc(NC(=O)C2CCC(N3C(=O)C4CCCCC4C3=O)CC2)cc1 (stereo not given),,"2310 nM [rising, full curve]",
Cc1cc(/C=C2/NC(=O)NC2=O)c(C)n1-c1cccnc1,13.8%,"8200 nM [rising, partial curve]",
CC1(C)CC(=O)C2=C(C1)OC1=C(C(=O)CC(C)(C)C1)C2c1ccccc1,-3.34%,"820 nM [falling, full curve, poor fit]",
Cc1ccc(S(=O)(=O)c2nc(Nc3ccccc3N3CCOCC3)sc2Cl)cc1,-7.81%,"130 nM [falling, full curve, poor fit]",
COc1ccc(CCNC(=O)Cn2cnc3scc(-c4ccccc4)c3c2=O)cc1OC,-12%,"820 nM [falling, full curve]",
COc1ccc(OC)c(NC(=O)c2cccc3c2C(=O)N(C2CCCCC2)C3)c1,-12.6%,,
COc1ccc(C2/C=C\CN(S(=O)(=O)c3ccc(-c4ccccc4)cc3)CC(=O)N2Cc2ccc(F)cc2)cc1 (stereo not given),16.5%,"1030 nM [rising, full curve, poor fit]",
CC(=O)Nc1nc(-c2ccc(Cl)cc2)ns1,21.6%,,"2060 nM [rising, single point]"

SMILES,cell number change,AC50 [1],AC50 [2]
O=C(Nc1ccc2c(c1)OCCO2)c1ccccc1F,-5.05%,"461 nM [rising, single point]","1300 nM [rising, partial curve]"
Cn1c(=O)c2ncn(CC(=O)NC3CCCCCC3)c2n(C)c1=O,21.9%,"18400 nM [rising, partial curve, poor fit]",
COc1ccc2oc(C(=O)NCCN3CCOCC3)c(C)c2c1OC,19.5%,"651 nM [rising, single point]",
Cc1cccc(C(=O)NCCc2nnc(SCC(=O)Nc3nc(C)cs3)n2C)c1,,"6510 nM [falling, single point]",
CC1CCN(S(=O)(=O)c2ccc3c(c2)c(=O)c(C(=O)N2CCCCC2)cn3C)CC1,-9.74%,,
COc1ccc(NC(=O)CSc2nnc3c4c(nc(-c5ccccc5)n23)CC(C)(C)OC4)cc1,-1.25%,"14600 nM [falling, single point]",
O=C(NCC(=O)N1CC(O)CC1C(=O)N1CC(O)CC1C(=O)OCc1ccccc1)OCc1ccccc1 (stereo not drawn) (Cbz-Gly-[Hyp]-[Hyp]-OBn; configuration not given here),-35.4%,"51.7 nM [falling, full curve, poor fit]","1840 nM [falling, partial curve]"
CCC(NS(=O)(=O)c1ccc(C)cc1)C(=O)N1CCOCCOCCOCCOCC1 (stereo not given),-10.5%,"35500 nM [rising, single point]",
COC(=O)C1C2CCC(C2)C1C(=O)OCC(=O)c1ccc(C)cc1 (stereo not given),2.16%,,
O=C(NCCN1CCCC(O)C1)c1cc(COc2ccc(F)cc2Cl)on1 (stereo not given),11.3%,,"2060 nM [rising, single point]"
Cc1cc(=O)oc(C)c1C(=O)NCCCN1C(C)CCCC1C (stereo not given),-15.9%,,
CSc1nsc(SCC(=O)Nc2ccccc2C(=O)O)n1,-5.13%,"116 nM [falling, single point]",
c1ccc(-n2nnnc2SCc2cccc3nsnc23)cc1,26.8%,"6510 nM [rising, partial curve]",
O=C(CN1CCCCC1)NCCNC(=O)CN1CCCCC1,-36.8%,"20600 nM [falling, single point]","29100 nM [falling, single point]"
Cc1sc2ncn(CC(=O)NCCc3ccccc3)c(=O)c2c1C,37.2%,,
Cc1ccc(C(=O)/C=C/Nc2cccc([N+](=O)[O-])c2)o1,86.5%,"3660 nM [rising, single point]","16400 nM [rising, partial curve]"
Cc1cccc(C(=O)Oc2ccc(/C=N/NC(=O)c3cc(O)cc(O)c3)cc2)c1,-31.7%,,"23100 nM [falling, single point]"
CCc1ccc(OCCOCC(O)CN2CCN(Cc3ccc(Cl)cc3)CC2)cc1 (stereo not given),-5.63%,"23100 nM [falling, partial curve]",
COc1ccc(NC(=O)Nc2c(C)n(C)n(-c3ccccc3)c2=O)cc1OC,15.3%,,
CCOC(=O)Cc1cc(OC)c(OC)cc1Cc1cc(OC)c(OC)cc1CC(=O)OCC,-24%,,"25.9 nM [falling, full curve, poor fit]"

SMILES,cell number change,AC50 [1],AC50 [2]
CN(C)CCCn1c(SCC(=O)N2CC(=O)Nc3ccccc32)nc2ccccc2c1=O,-19%,"92 nM [rising, partial curve, poor fit]",
N#Cc1ccc(CSc2nnc(-c3ccncc3)o2)cc1,-7.45%,"6510 nM [rising, partial curve, poor fit]",
CCOc1ccc(Cc2onc3c2C(=O)CCC3)cc1OCC,47%,,
CS(=O)(=O)N(CC(=O)Nc1cccc([N+](=O)[O-])c1)c1ccccc1,92.4%,"25900 nM [rising, single point]","29100 nM [rising, single point]"
CCN(CC)C(=O)C1CCCN(Cc2ccc(OC)c(C)c2C)C1 (stereo not given),-126%,"23100 nM [falling, partial curve]","20600 nM [falling, partial curve]"
CCOc1cccc(C2C(C(=O)c3ccco3)=C(O)C(=O)N2c2nnc(C)s2)c1 (stereo not given),0.493%,"2060 nM [falling, partial curve, poor fit]",
COc1ccc(S(=O)(=O)Nc2ccccc2Cl)cc1NC(C)=O,1.69%,"130 nM [falling, full curve, poor fit]","6510 nM [falling, single point]"
O=C1CCCN1CCCNC(=S)Nc1ccc(Cl)cc1Cl,9.63%,,
COc1ccccc1Oc1coc2cc(OCC(N)=O)ccc2c1=O,16.2%,"206 nM [falling, single point]",
O=c1c2ccccc2cnn1Cc1n[nH]c(=S)n1C1CC2CCC1C2 (stereo not given),20.3%,"32.6 nM [rising, full curve]","51.7 nM [rising, full curve, poor fit]"
O=C(CN1C(=O)c2ccccc2C1=O)OCc1nc2ccsc2c(=O)[nH]1,-10.7%,"29100 nM [rising, single point]",
O=S(=O)(c1ccccc1)[C@@]1(c2ccc(Br)cc2)C[C@@H]2ON=C(c3ccccc3)[C@@H]2C1,-4.55%,"164 nM [falling, full curve, poor fit]",
CCc1cc(=O)oc2cc(C)cc(OC(=O)c3ccco3)c12,-4.43%,"2310 nM [falling, partial curve]",
O=C(CSc1ccccn1)Nc1ccc2ccccc2c1,25%,"20600 nM [rising, partial curve]",
Nn1c(Cc2ccccc2)n[nH]c1=S,-2.22%,"116 nM [falling, full curve, poor fit]",
CN(C(=O)Cn1cc(C(F)(F)F)cc(Cl)c1=O)C1CCS(=O)(=O)C1 (stereo not given),-1.57%,"18400 nM [falling, single point]",
O=[N+]([O-])c1ccc(F)cc1OCc1cccc(S(=O)(=O)N2CCOCC2)c1,24.4%,"1460 nM [rising, full curve]","651 nM [rising, full curve]"
NC(=O)C1Cc2ccccc2CN1S(=O)(=O)c1cccs1 (stereo not given),-52.4%,"1030 nM [falling, full curve]","920 nM [falling, full curve]"

# A run of entries from the list above, as a working copy:
SMILES,cell number change,AC50 [1],AC50 [2]
CCc1cc(=O)oc2cc(C)cc(OC(=O)c3ccco3)c12,-4.43%,"2310 nM [falling, partial curve]",
O=C(CSc1ccccn1)Nc1ccc2ccccc2c1,25%,"20600 nM [rising, partial curve]",
Nn1c(Cc2ccccc2)n[nH]c1=S,-2.22%,"116 nM [falling, full curve, poor fit]",
CN(C(=O)Cn1cc(C(F)(F)F)cc(Cl)c1=O)C1CCS(=O)(=O)C1 (stereo not given),-1.57%,"18400 nM [falling, single point]",
